For this experiment, the system named is L1210 leukemia ip in BDF1 mice, survival T/C. Kind of experiment: NCI In Vivo Anticancer Drug Screen. Data for tumor model L1210 Leukemia (intraperitoneal) in B6D2F1 (BDF1) mice. Conditions: T/C endpoint: mean survival time, higher T/C = longer survival.
The mark [1] stands for this setting: dose: 36.0 mg/kg/injection, schedule: Q01DX Z (oral), vehicle: saline.
Where [2] appears, read: dose: 38.0 mg/kg/injection, schedule: Q01DX Z (ip), vehicle: methylcellulose (MC).
The mark [3] stands for this setting: dose: 100.0 mg/kg/injection, schedule: Q01DX001 (ip), vehicle: saline.
The mark [4] stands for this setting: dose: 200.0 mg/kg/injection, schedule: Q01DX001 (ip), vehicle: saline.
[5] abbreviates: dose: 400.0 mg/kg/injection, schedule: Q01DX001 (ip), vehicle: saline.

The list does not hold the whole screen: its compounds were picked by chemical class. Other doses and runs of a compound may be missing. T/C is the treated group as % of the vehicle group. Some doses have a count of surviving animals in place of a T/C: the source files T/C as zero there, which appears to mark a toxic dose or a test without result, not a measured value. Some doses without a T/C left all or most animals alive at the check, yet need not have been tolerated: the source hardly ever lists a survival T/C far under the control, and the zero likely stands for such cases as well. Survivors were counted at the toxicity check, usually on the fifth day, unless a day is given; later deaths do not show. Schedules are NCI's codes, taken here to give the interval after Q, in days (D) or hours (H), and the number of doses after X. Some schedule codes hold Z or #, which are not explained here. Some complexes appear as separate parts, the way the source draws them; their charges need not add up. Where survival is the endpoint, the PubChem record calls one and a half times the control and up active, and a quarter to a half above the control has no call in these data; cut-offs in other NCI protocols can differ. Some entries were tested several times; the results are listed from low to high.

Turning to `O[C@H](CNCCCl)[C@H](O)CNCCCl`, the T/C is 114 % of control (dose: 0.38 mg/kg/injection, schedule: Q01DX Z (ip), vehicle: saline); 126 % of control (dose: 0.75 mg/kg/injection, schedule: Q01DX Z (ip), vehicle: saline); 122 % of control (dose: 0.8 mg/kg/injection, schedule: Q01DX Z (ip), vehicle: carboxymethylcellulose (CMC)); 127 % of control (dose: 0.8 mg/kg/injection, schedule: Q01DX Z (ip), vehicle: saline); 131 % of control (dose: 1.2 mg/kg/injection, schedule: Q01DX Z (ip), vehicle: saline); 110 % of control (dose: 1.3 mg/kg/injection, schedule: Q01DX Z (ip), vehicle: methylcellulose (MC)). Moreover, the T/C was 146 % of control (dose: 1.3 mg/kg/injection, schedule: Q01DX Z (ip), vehicle: saline); 122 % of control (dose: 1.5 mg/kg/injection, schedule: Q01DX Z (ip), vehicle: saline); 130 % of control (dose: 1.6 mg/kg/injection, schedule: Q01DX Z (ip), vehicle: carboxymethylcellulose (CMC)); 133 % of control (dose: 1.8 mg/kg/injection, schedule: Q01DX Z (ip), vehicle: saline); 151 % of control (dose: 2.0 mg/kg/injection, schedule: Q01DX Z (ip), vehicle: saline); 130 % of control (dose: 2.66 mg/kg/injection, schedule: Q01DX Z (ip), vehicle: saline). Besides, the T/C reads like this: (dose: 2.7 mg/kg/injection, schedule: Q01DX Z (ip), vehicle: methylcellulose (MC)) 133 % of control; (dose: 2.8 mg/kg/injection, schedule: Q01DX Z (ip), vehicle: saline) 167 % of control; (dose: 3.0 mg/kg/injection, schedule: Q01DX Z (ip), vehicle: saline) 158, 160, 168 % of control; (dose: 3.0 mg/kg/injection, schedule: Q01DX Z (oral), vehicle: saline) 97 % of control; (dose: 3.3 mg/kg/injection, schedule: Q01DX Z (ip), vehicle: carboxymethylcellulose (CMC)) 148 % of control; (dose: 4.0 mg/kg/injection, schedule: Q01DX Z (ip), vehicle: saline) 180 % of control. The T/C runs as follows: (dose: 4.3 mg/kg/injection, schedule: Q01DX Z (ip), vehicle: saline) 143 % of control; (dose: 4.5 mg/kg/injection, schedule: Q01DX Z (oral), vehicle: saline) 95 % of control; (dose: 4.7 mg/kg/injection, schedule: Q01DX Z (oral), vehicle: saline) 116 % of control; (dose: 5.5 mg/kg/injection, schedule: Q01DX Z (ip), vehicle: methylcellulose (MC)) 149 % of control; (dose: 6.0 mg/kg/injection, schedule: Q01DX Z (ip), vehicle: saline) 166 and 214 % of control; (dose: 6.5 mg/kg/injection, schedule: Q01DX Z (ip), vehicle: saline) 148 % of control. For the same compound, the T/C is 114 % of control (dose: 6.7 mg/kg/injection, schedule: Q01DX Z (oral), vehicle: saline); 122 % of control (dose: 7.1 mg/kg/injection, schedule: Q01DX Z (oral), vehicle: saline); 156 % of control (dose: 7.5 mg/kg/injection, schedule: Q01DX010 (oral), vehicle: water); 172 % of control (dose: 7.5 mg/kg/injection, schedule: Q01DX Z (ip), vehicle: carboxymethylcellulose (CMC)); 150 and 151 % of control (dose: 9.0 mg/kg/injection, schedule: Q01DX Z (ip), vehicle: saline); 146 % of control (dose: 10.6 mg/kg/injection, schedule: Q01DX Z (oral), vehicle: saline). For the same compound, the T/C reads like this: (dose: 10.7 mg/kg/injection, schedule: Q01DX Z (oral), vehicle: saline) 142 % of control; (dose: 11.0 mg/kg/injection, schedule: Q01DX Z (ip), vehicle: methylcellulose (MC)) 126 and 139 % of control; (dose: 11.0 mg/kg/injection, schedule: Q01DX Z (ip), vehicle: saline) 176 % of control; (dose: 12.0 mg/kg/injection, schedule: Q01DX Z (ip), vehicle: saline) 275 % of control; (dose: 13.5 mg/kg/injection, schedule: Q01DX Z (ip), vehicle: saline) 172 and 181 % of control; (dose: 15.0 mg/kg/injection, schedule: Q01DX010 (oral), vehicle: water) 141 % of control. Also, the T/C was 213 % of control (dose: 15.0 mg/kg/injection, schedule: Q01DX Z (ip), vehicle: carboxymethylcellulose (CMC)); 166 and 170 % of control (dose: 16.0 mg/kg/injection, schedule: Q01DX Z (oral), vehicle: saline); 93 and 94 % of control (dose: 17.0 mg/kg/injection, schedule: Q01DX Z (ip), vehicle: methylcellulose (MC)); 186 % of control (dose: 17.0 mg/kg/injection, schedule: Q01DX Z (ip), vehicle: saline); 164 % of control (dose: 20.0 mg/kg/injection, schedule: Q01DX Z (ip), vehicle: saline); 126 and 185 % of control (dose: 24.0 mg/kg/injection, schedule: Q01DX Z (oral), vehicle: saline). The T/C by setting is: (dose: 25.0 mg/kg/injection, schedule: Q01DX Z (ip), vehicle: methylcellulose (MC)) 87 and 91 % of control; (dose: 25.0 mg/kg/injection, schedule: Q01DX Z (ip), vehicle: saline) 113 and 150 % of control; (dose: 30.0 mg/kg/injection, schedule: Q01DX010 (oral), vehicle: water) 102 % of control; (dose: 30.0 mg/kg/injection, schedule: Q01DX Z (ip), vehicle: saline) 125 % of control; under setting [1], 116 % of control; under setting [2], 98 % of control. Also, the T/C runs as follows: (dose: 45.0 mg/kg/injection, schedule: Q01DX Z (ip), vehicle: saline) 95 % of control; (dose: 50.0 mg/kg/injection, schedule: Q01DX001 (ip), vehicle: saline) 174 % of control; under setting [3], 115 % of control. For the same compound, the survivor count is recorded as 6 of 6 under setting [1]; 5 of 6 under setting [2]; 6 of 6 (dose: 38.0 mg/kg/injection, schedule: Q01DX Z (ip), vehicle: saline); 5 of 6 (dose: 50.0 mg/kg/injection, schedule: Q01DX Z (ip), vehicle: methylcellulose (MC)); 6 of 6 (dose: 50.0 mg/kg/injection, schedule: Q01DX Z (ip), vehicle: saline); 6 of 6 (dose: 60.0 mg/kg/injection, schedule: Q01DX010 (oral), vehicle: water). In addition, the survivor count was 5 of 6 (dose: 120.0 mg/kg/injection, schedule: Q01DX010 (oral), vehicle: water); 2 of 4 under setting [4]; 0 of 6 (dose: 240.0 mg/kg/injection, schedule: Q01DX010 (oral), vehicle: water); 0 of 4 under setting [5]; 0 of 6 (dose: 480.0 mg/kg/injection, schedule: Q01DX010 (oral), vehicle: water).
In the case of `CCOC(=O)NNC(=S)NP(=O)(NC(=S)NNC(=O)OCC)NC(=S)NNC(=O)OCC`, the T/C runs as follows: (dose: 75.0 mg/kg/injection, schedule: Q01DX001 (ip), vehicle: saline) 91 % of control; (dose: 150.0 mg/kg/injection, schedule: Q01DX001 (ip), vehicle: saline) 90 % of control. The survivor count (dose: 300.0 mg/kg/injection, schedule: Q01DX001 (ip), vehicle: saline) was 1 of 6.
As for `CN1C(=O)CC(C(=O)OC2CN3CCC2CC3)CC1=O` (configuration not stated), the T/C reads like this: under setting [3], 102 % of control; under setting [4], 98 % of control. For the same compound, the survivor count under setting [5] is given as 1 of 6.
With `CCCN(CCC)CCC.F[P-](F)(F)(F)(F)F`, the T/C was 98 % of control (dose: 50.0 mg/kg/injection, schedule: Q04DX003 (ip), vehicle: saline with Tween-80) and 94 % of control (dose: 100.0 mg/kg/injection, schedule: Q04DX003 (ip), vehicle: saline with Tween-80). Besides, the survivor count reads like this: (dose: 200.0 mg/kg/injection, schedule: Q04DX003 (ip), vehicle: saline with Tween-80) 0 of 6; (dose: 400.0 mg/kg/injection, schedule: Q04DX003 (ip), vehicle: saline with Tween-80) 0 of 6.

The values are drawn from PubChem BioAssay AID248 (DTP/NCI, 2004).
